# Patent publication US12338443B2, “Photoactivatable Tet expression control system” (JAPAN SCIENCE AND TECHNOLOGY AGENCY, priority 2018, dated 2025)
# For at least one compound, name, drawing or mass did not settle the structure.
# Experiments:
# [1] = tested on: pTREtight-Ub-ELuc reporter in HEK293T cells; experiment: Relationship between Dox concentration and induced gene expression level (FIG. 7); format: cell-based, human; conditions: in words
# Method: In order to analyze the relationship between the Dox concentration and the induced gene expression level, HEK293T cells were seeded in a 24-well plate at 5 to 9×10^4 cells/well, transfected, and assayed in the same manner as in candidate construct screening. Dox was applied to the cells at concentrations of 0, 1, 7.5, 15, 20, 50, and 100 ng/mL for the PA-Tet-OFF constructs and at concentrations of 0, 10, 15, 20, 30, 35, 40, 50, 75, 100, and 250 ng/mL for the PA-Tet-ON constructs. The cells were irradiated with blue light (7.2 W/m^2; pulsed for 2 seconds every minute) for 3 hours.
# In addition, for the PA-Tet-OFF system using the PA-Tet-OFF-T2A construct and the PA-Tet-independent system using the PA-Tet-H100Y construct, the influence of DOx concentration on the PA-Tet-controlled expression efficiency was investigated. Furthermore, for the PA-Tet-ON system using a construct obtained by introducing a V10 mutation into the PA-Tet-OFF-T2A construct (PA-Tet-ON-T2A construct), the influence of Dox concentration on the PA-Tet-controlled expression efficiency was investigated. The data represent mean±standard deviation (n=3) obtained from one experiment. In FIGS. 7(A) and 7(B), “*” means p<0.05 (paired student's t-test).
# [2] = tested on: brain neurons of mouse pups; experiment: Light- and Dox-dependent luciferase expression in brain neurons of mouse pups; format: in vivo; conditions: in words
# Method: For irradiating the brains of mouse pups with light, anesthetized mice were stimulated through an optical fiber using a blue LED (PLEXBRIGHT®, manufactured by Plexon Inc). After being irradiated with blue light (40 W/m^2; pulsed for 1 second every 15 seconds; continued for 3 hours), the mice were immediately sacrificed, the right brain irradiated with blue light was immediately extracted and lysed, and the luciferase activity thereof was measured.
# The mice were treated with Dox. For long-term Dox administration, drinking water containing 1 mg/mL Dox in a 5% by mass sucrose solution was given to the mice. For Dox pulse treatment, the mice were given Dox by intraperitoneal injection at a single dose of 0.1 mg/g (body weight).
# Next, Dox-dependent inhibition of transcriptional activity of the PA-Tet-OFF system in brain neurons was analyzed. Mice that had been subjected to AAV transduction within 1 day after birth were subjected to a blue light pulse irradiation treatment on the 12th to 15th day after birth. […] The luminescence signal intensity induced by the luciferase expression in the brain cells after the light irradiation treatment was measured. Furthermore, for mice treated with Dox (0.1 mg/g (body weight)) 1 hour before the light irradiation treatment, the luminescence signal intensity was also measured in the same manner. In the mouse brain neurons (represented by “Light” in FIG. 25) subjected to the light irradiation treatment, luciferase expression was activated, and the luminescence signal intensity increased.
# By using the construct of the PA-Tet-ON system, Dox-dependent inhibition of the transcriptional activity of the PA-Tet-ON system in brain neurons was analyzed in the same manner. In mouse brain neurons (“Light+Dox” in FIG. 26) subjected to the light irradiation treatment 1 hour after the Dox treatment (0.1 mg/g (body weight)), luciferase expression was activated, and the luminescence signal intensity increased. […]
# Furthermore, the restoration of light-inducible transcriptional activity after removal of Dox was analyzed in cells transfected with the PA-Tet-OFF system. […]
# [3] = tested on: transplanted Eph4 cells in mouse subcutaneous tissue; experiment: PA-Tet-OFF stable strain transplanted into subcutaneous tissue of dorsal skin of adult mice; format: in vivo; conditions: Dox 0.1 mg/g 1 hour before blue light, in words
compound,measurement,setting,value
"C[C@H]1c2cccc(O)c2C(=O)C2=C(O)[C@]3(O)C(=O)C(C(N)=O)=C(O)[C@@H](N(C)C)[C@@H]3[C@@H](O)[C@@H]21 [Dox, doxycycline]",PA-Tet-controlled gene expression versus Dox concentration,[1]; PA-Tet-OFF system,attenuated the PA-Tet-controlled gene expression in a concentration-dependent manner
same,PA-Tet-controlled gene expression versus Dox concentration,"[1]; PA-Tet-ON system, Dox 0 to 250 ng/mL",increased in correlation with the Dox concentration
same,induced luciferase activity,"[1]; PA-Tet-ON system, Dox concentration higher than 250 ng/mL",slightly reduced
same,Dox concentration dependence,[1]; PA-Tet-independent system,not confirmed
same,luciferase reporter activity,"[2]; PA-Tet-OFF system, 5th day after single dosing of Dox",restored substantially to the same level as the luciferase reporter activity in Dox-untreated cells
same,luminescence signal intensity after light irradiation,"[2]; PA-Tet-OFF system, Dox 0.1 mg/g 1 hour before light irradiation",significantly attenuated to the background level
same,blue light-dependent transcription,"[2]; PA-Tet-ON system, Dox 0.1 mg/g",observed only in the presence of Dox
same,luciferase signals activated by blue light irradiation,[3],completely disappeared
